Measured values from paper PMC10942982.
Results are given in words; binding and its absence hold for the method and conditions named. In cells and extracts the contact can be indirect. Some entries that bind do so weakly or less than the wild type.

By UniProt entry, the sequences of proteins in these tests, tags left out. Where a name states a change or a piece, a line headed by the entry shows the natural chain unless it says otherwise. Chains listed by the source or under a name are the forms on record and can include a tag or linker.
UniProt Q8NEZ2: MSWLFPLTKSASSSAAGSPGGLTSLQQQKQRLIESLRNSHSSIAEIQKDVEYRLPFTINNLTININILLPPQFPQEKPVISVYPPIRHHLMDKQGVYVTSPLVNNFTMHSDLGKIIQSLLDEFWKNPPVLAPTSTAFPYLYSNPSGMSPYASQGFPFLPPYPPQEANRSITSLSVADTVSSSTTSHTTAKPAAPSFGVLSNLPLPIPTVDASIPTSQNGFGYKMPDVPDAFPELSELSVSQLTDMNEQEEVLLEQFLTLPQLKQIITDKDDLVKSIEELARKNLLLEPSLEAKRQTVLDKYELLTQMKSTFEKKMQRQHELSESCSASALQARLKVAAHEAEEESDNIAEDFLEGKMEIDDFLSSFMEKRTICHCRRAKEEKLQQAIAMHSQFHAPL
GFP-tagged VPS37A mutant with both 3WLFP and 137FPYL motifs mutated to DDDD (Q8NEZ2, form named): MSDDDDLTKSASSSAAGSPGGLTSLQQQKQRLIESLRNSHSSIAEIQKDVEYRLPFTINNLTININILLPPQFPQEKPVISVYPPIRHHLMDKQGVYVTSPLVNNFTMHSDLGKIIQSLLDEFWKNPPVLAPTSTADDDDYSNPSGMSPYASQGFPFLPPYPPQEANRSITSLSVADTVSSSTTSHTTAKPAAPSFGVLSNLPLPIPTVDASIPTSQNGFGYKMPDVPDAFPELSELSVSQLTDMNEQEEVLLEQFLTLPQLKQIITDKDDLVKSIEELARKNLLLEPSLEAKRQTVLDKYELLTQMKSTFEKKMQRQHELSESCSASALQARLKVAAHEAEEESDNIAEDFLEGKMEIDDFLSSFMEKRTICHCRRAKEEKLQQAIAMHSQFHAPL
UniProt Q99816: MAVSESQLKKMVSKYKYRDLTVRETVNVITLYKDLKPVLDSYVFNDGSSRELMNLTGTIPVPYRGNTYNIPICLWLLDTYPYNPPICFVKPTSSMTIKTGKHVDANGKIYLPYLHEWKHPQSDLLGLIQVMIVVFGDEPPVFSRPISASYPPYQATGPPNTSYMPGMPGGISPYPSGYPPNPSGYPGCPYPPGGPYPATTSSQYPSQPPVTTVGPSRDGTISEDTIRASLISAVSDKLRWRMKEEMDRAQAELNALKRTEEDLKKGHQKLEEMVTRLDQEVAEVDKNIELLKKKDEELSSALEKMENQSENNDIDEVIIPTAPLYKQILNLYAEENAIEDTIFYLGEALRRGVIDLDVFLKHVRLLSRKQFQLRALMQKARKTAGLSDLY
UniProt Q9UK41: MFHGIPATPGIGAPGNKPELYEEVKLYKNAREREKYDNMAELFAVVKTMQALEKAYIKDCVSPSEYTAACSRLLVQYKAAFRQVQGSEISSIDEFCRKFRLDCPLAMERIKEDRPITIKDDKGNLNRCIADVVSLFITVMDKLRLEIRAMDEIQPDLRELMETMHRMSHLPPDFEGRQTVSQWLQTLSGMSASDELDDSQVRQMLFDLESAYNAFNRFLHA

How the values were obtained:
[1] = molecular target: GFP-tagged wildtype VPS37A (human) (UniProt Q8NEZ2); test: co-IP; GFP-Trap beads on total cell lysates in 0.5% NP-40 lysis buffer (10 mM Tris/Cl pH 7.5, 150 mM NaCl, 0.5 mM EDTA), washed three times with lysis buffer, immunoblotting
[2] = molecular target: GFP-tagged VPS37A mutant with both 3WLFP and 137FPYL motifs mutated to DDDD (human) (UniProt Q8NEZ2); test: as above

Substance | binding [1] | binding [2]
TSG101 (from UniProt Q99816 1-390) | binds | binds
VPS28 (from UniProt Q9UK41 1-221) |  | binds
